Source: PubChem BioAssay AID2685 (National Center for Advancing Translational Sciences (NCATS), 2010)
The other results are listed elsewhere or left out. These are further read-outs of the screen, such as a control signal, another cell line or another target. No call is given for them. Most of these compounds were active or inconclusive in the main read-out, so they are no random draw. Potencies come from curve fits of mixed quality, noted in brackets.

Test: qHTS Assay for Lipid Storage Modulators in Drosophila S3 Cells;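 on cell number change: cells counted by Cell Tracker Red CMTPX staining in the red channel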
Conditions: BODIPY lipid droplet fluorescence, 18-24 h; for cell number change: measured here: cell count max response, cells fed with added oleic acid
In short: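 Laser-scanning cytometry quantifies lipid droplet accumulation (500–530 nm total intensity; droplet/cell object ratio) in oleic acid-fed (400 uM added) Drosophila S3 cells treated with a concentration series. 20 uM Triacsin C defined 100% inhibition.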

[1] = measured here: lipid fluorescence (Fed channel) AC50, cells fed with added oleic acid
[2] = measured here: cell number channel AC50, cells fed with added oleic acid

Structure (SMILES) | cell number change [%] | AC50 [1] | AC50 [2]
N=C1C(c2nc3ccccc3c(=O)[nH]2)=C(O)CN1CCc1ccccc1 | 0.184 | 0.58 µM [rising, full curve, poor fit] | 
CCc1ccccc1N1CCN(S(=O)(=O)c2ccc(F)c(C)c2)CC1 | 25.9 | 6.51 µM [rising, partial curve] | 
O=C(c1ccccc1)C1CN(Cc2ccccc2)CCC1(O)c1ccccc1 (stereo not given) | 1.33 | 0.00517 µM [falling, full curve, poor fit] | 
CCOc1ccc2nc(NC(=O)CSc3nc4cccnc4n3C)sc2c1 | -70.9 | 18.4 µM [falling, partial curve] | 16.4 µM [falling, single point]
CCc1nnc(NS(=O)(=O)c2ccc(N)cc2)s1 | 13 | 18.4 µM [rising, partial curve, poor fit] | 
CC1C(c2ccccc2)N(C)CCC12NC(=O)NC2=O (stereo not given) | -5.7 | 6.51 µM [falling, single point] | 
O=C(O)c1cccc(S(=O)(=O)N2CC=C(c3ccccc3)CC2)c1 | 11.1 |  | 
Cc1nc(/C=C/c2ccccc2)cc(/C=C/c2ccccc2)n1 | 43.2 | 6.51 µM [rising, partial curve] | 0.411 µM [rising, full curve]
N=c1sccn1CC(=O)Nc1cccc2ccccc12 | 9.52 | 0.00461 µM [falling, full curve, poor fit] | 
O=C(NCCc1csc(-c2ccc(Cl)cc2)n1)c1ccco1 | -11 | 29.1 µM [falling, single point] | 
c1cncc(-c2nnc3n2N=C(c2cccs2)CS3)c1 | -29.5 |  | 
COC(=O)c1ccccc1NC(=O)CN1CCC(n2nnc3cc(C)ccc32)CC1 | -7.37 |  | 
O=C(COC(=O)c1c[nH]c(=O)[nH]c1=O)Nc1cccc([N+](=O)[O-])c1 | 18.3 | 3.26 µM [rising, single point] | 
Cc1ccccc1CNC(=O)COc1ccccc1 | -5.87 |  | 
Cc1ccc(-n2nc3c(c2NC(=O)c2ccco2)CS(=O)C3)cc1 (stereo not given) | 8.4 |  | 
CC(=O)N1c2ccc(S(=O)(=O)NCC3CCC(C(=O)Nc4cc(C)ccn4)CC3)cc2CC1C (stereo not given) | 16.4 | 18.4 µM [falling, partial curve] | 
Cc1cccc(C(=O)NCCN2CCCC2)c1 | 1.28 | 1.03 µM [rising, full curve] | 
CCSc1ncc(/C=N/Nc2ccc([N+](=O)[O-])cc2)n1C | -27.7 | 0.82 µM [rising, single point] | 
Clc1cc(NC2CCCCC2)ncn1 | -26.3 | 0.00461 µM [falling, full curve, poor fit] | 
CC1CCCCN1CCCNC(=O)C1CCN(c2nnc(-n3cccc3)s2)CC1 (stereo not given) | -24.4 | 29.1 µM [falling, single point] | 
COc1ccc(NC(C)=O)cc1S(=O)(=O)N1CCN(C/C=C/c2ccccc2)CC1 |  | 6.51 µM [rising, single point] | 
COc1cc(/C=C/C(=O)OCC(=O)Nc2ccc(Cl)cn2)ccc1O | -24.9 |  | 0.731 µM [falling, full curve, poor fit]

Structure (SMILES) | cell number change [%] | AC50 [1] | AC50 [2]
Cc1cccc(N(CC(N)=O)C2SC(=O)N(c3ccccc3)C2=O)c1 (stereo not given) | -39.5 | 5.17 µM [falling, full curve] | 5.8 µM [falling, full curve]
CCn1c(/C(C#N)=C(\O)CCc2ccccc2)nc2ccccc21 | 12.8 | 4.11 µM [rising, single point] | 
CC/C(=N\NC(=O)CSc1ncccn1)c1ccc2c(c1)OCCO2 | 8.21 | 29.1 µM [rising, single point] | 
O=C(O)c1n[nH]c2c1CCCC2 | 2.77 | 0.184 µM [falling, partial curve] | 
CCC(C)[C@H](NC(=O)C1CCN(C(=O)[C@H](Cc2ccccc2)NS(=O)(=O)c2ccc(C)cc2)CC1)C(=O)O (stereo not given in full) | 0.508 |  | 
Cc1cc(N/N=C/c2ccc(O)cc2)nc(NS(=O)(=O)c2ccccc2)n1 |  |  | 2.91 µM [rising, single point]
Cc1ccccc1Cc1c(C)nc2nc(SCC(=O)NCCCN3CCCCC3)nn2c1C | 15 | 0.366 µM [rising, partial curve] | 
O=C(NCc1ccc2c(c1)OCO2)c1ccc(CS(=O)(=O)c2ccc(Br)cc2)o1 | 5.89 |  | 
O=C(O)C1CCN(C(=O)c2csc(-c3ccc4c(c3)CCO4)n2)CC1 | -50.6 | 29.1 µM [falling, single point] | 29.1 µM [falling, single point]
COc1ccc(Cl)cc1S(=O)(=O)NC1CC(C)(C)NC(C)(C)C1 | -42.2 |  | 
CCN(CC(=O)NC(C)C)Cc1nc2sc3c(c2c(=O)[nH]1)CCC3 | 59.4 | 0.259 µM [falling, partial curve, poor fit] | 20.6 µM [rising, single point]
COc1cc2nc(CN(C)Cc3ccc(OC)c(OC)c3OC)[nH]c(=O)c2cc1OC | 78 |  | 4.11 µM [rising, partial curve]
O=C(O)CSc1nccc2ccccc12 | 11.3 |  | 
CCn1c(COc2ccccc2C)nnc1SCC(=O)CC(=O)Nc1ccccc1 | -1.3 | 0.13 µM [rising, full curve, poor fit] | 
CC1CCCCC1NC(=O)CSc1nnc(CNC(=O)c2ccccc2)n1C (stereo not given) | -1.06 | 4.11 µM [falling, single point] | 
COc1ccc(Br)cc1CN(C)CC(=O)NCCc1ccccc1 | -36.4 |  | 
O=C(NC1CCCCCC1)C1c2ccccc2C(=O)N1Cc1cccnc1 (stereo not given) | 33.1 | 9.2 µM [falling, single point] | 4.61 µM [rising, single point]
COc1ccc2c(c1)C(C)=CC(C)(C)N2S(=O)(=O)c1ccc(NC(C)=O)cc1 | 8.77 | 29.1 µM [falling, single point] | 
Cc1cccnc1NC(=O)c1ccc(S(=O)(=O)N2CCCCC2)cc1 | -14.8 | 0.731 µM [rising, full curve, poor fit] | 
CCN1CCN(Cc2ccc(NC(=O)c3ccc(C)c(NC(=O)c4csc(-c5ccncc5)n4)c3)cc2C(F)(F)F)CC1 | -18.7 | 18.4 µM [falling, single point] | 
COc1ccc(-c2cn(-c3ccccc3)nc2CO)cc1 | 19.4 | 0.82 µM [rising, full curve] | 
COc1cccc(NC(=O)CN(C)C(=O)Cn2cnc3ccccc3c2=O)c1 |  |  | 1.64 µM [falling, partial curve]

Structure (SMILES) | cell number change [%] | AC50 [1] | AC50 [2]
Cc1nc(Sc2cccn2C)c(C(F)(F)F)c(=O)[nH]1 | -66.9 | 0.411 µM [falling, full curve, poor fit] | 29.1 µM [falling, single point]
Cc1ccc(S(=O)(=O)NNC(=O)C(O)(c2ccccc2C)c2ccccc2C)cc1 | -9.64 |  | 
Cc1c(C(=O)/C=C/c2cccs2)oc2ccc(F)cc12 | 64.4 |  | 
CCOc1ccc(N(CC(=O)Nc2cccc(C)c2)S(C)(=O)=O)cc1 | -26.2 |  | 
O=c1c2c(-c3ccccc3)csc2ncn1/N=C/c1c2ccccc2cc2ccccc12 | 4.33 | 11.6 µM [rising, single point] | 6.51 µM [rising, single point]
Cc1ccc(NC(=O)c2cc(=O)[nH]c3ccccc23)cc1C | 5.49 | 29.1 µM [falling, single point] | 
COc1ccc2cc(C(=O)COC(=O)COc3ccc4c(C)cc(=O)oc4c3)ccc2c1 | -6.26 | 0.651 µM [rising, full curve, poor fit] | 1.64 µM [rising, partial curve]
Cc1ccc(CC2CC(=O)N(CCc3ccc4c(c3)OCO4)C2=O)cc1 (stereo not given) | 89.2 | 1.16 µM [rising, full curve] | 20.6 µM [rising, partial curve]
O=C(NCC(=O)N1CCCC(C(F)(F)F)C1)c1ccco1 (stereo not given) | -17 | 29.1 µM [rising, partial curve, poor fit] | 
CCCC(=O)Nc1ccc(NC(=O)CCc2ccccc2)cn1 | -8.54 | 2.91 µM [rising, partial curve] | 
Cc1ccc(NC(=O)CCNC(=O)c2ccco2)cc1F | 84.4 |  | 
O=C(Nc1cccc(O)c1)c1cc(-c2ccc3c(c2)OCO3)on1 | 14.3 |  | 
CCc1ccc2c(c1)C(c1ccncc1)=NNC(c1ccccc1)=N2 | 9.34 | 2.31 µM [falling, single point] | 
Clc1ccc(-c2nnc3n2CCCCC3)cc1 | 31.7 |  | 
CCCn1c2c(c(O)c(C(=O)Nc3ccccn3)c1=O)CCCC2 | -11.6 | 0.0259 µM [falling, single point] | 
CCOCc1nnc(NC(C)=O)s1 | -5.59 | 29.1 µM [rising, single point] | 
CCOC(=O)C1=C(C)OC(N)=C(C#N)C1c1cc2cc(C)ccc2nc1N1CCCCC1 (stereo not given) | -41.9 | 13 µM [falling, partial curve] | 8.2 µM [falling, partial curve]
O=C(NC1CCCCC1)C1CCCN1C(=O)NCc1ccccc1 (stereo not given) | -176 |  | 29.1 µM [falling, partial curve]
COc1ccc(CC(=O)NCc2ccc3c(c2)cc(C)n3C)cc1OC | 9.62 | 18.4 µM [falling, single point] | 
CC1(C)NC(=O)N(CCOc2ccc3c(c2)CCC3)C1=O | -0.141 | 29.1 µM [falling, single point] | 

Arranged by molar mass (rising): three of the compounds above.
Structure (SMILES) | cell number change [%] | AC50 [1] | AC50 [2]
Clc1ccc(-c2nnc3n2CCCCC3)cc1 | 31.7 |  | 
Cc1ccc(NC(=O)CCNC(=O)c2ccco2)cc1F | 84.4 |  | 
Cc1ccc(CC2CC(=O)N(CCc3ccc4c(c3)OCO4)C2=O)cc1 (stereo not given) | 89.2 | 1.16 µM [rising, full curve] | 20.6 µM [rising, partial curve]

An excerpt from further up, for reference:
Structure (SMILES) | cell number change [%] | AC50 [1] | AC50 [2]
CC/C(=N\NC(=O)CSc1ncccn1)c1ccc2c(c1)OCCO2 | 8.21 | 29.1 µM [rising, single point] | 
O=C(O)c1n[nH]c2c1CCCC2 | 2.77 | 0.184 µM [falling, partial curve] | 
